Data published in US6566518B1, “Trifluoromethylpyri(mi)dine carboxamides” (Syngenta Crop Protection, Inc., priority 1999, dated 2003).
Some entries share one result that the patent states for a list of compounds.

How the values were obtained:
[1] = tested on: Aphis craccivora; assay: Effect against Aphis craccivora (spray on infected pea seedlings); assay type: in vivo; conditions: spray mixture 400 ppm active ingredient, 20° C., evaluated 3 and 6 days later
[2] = tested on: Myzus persicae; assay: Systemic effect against Myzus persicae (roots placed in spray mixture); assay type: in vivo; conditions: roots placed in spray mixture 400 ppm active ingredient, pea seedlings, 20° C., evaluated 3 and 6 days later

Row | SMILES | efficacy (percentage reduction of the population, % response) [1] | efficacy (percentage reduction of the population, % response), systemic [2]
1 | CN(O)C(=O)c1cnccc1C(F)(F)F [Compound 1.3, 4-Trifluoromethylnicotinic acid-N-methyl-N-hydroxy-amide] | more than 80% | more than 80%
2 | CON(C)C(=O)c1cnccc1C(F)(F)F [Compound 1.4, 4-trifluoromethylnicotinic acid-N-methyl-N-methoxy-amide] | – | more than 80%
